Binding data for one molecule are collected here from publication PMC12352869.

These are yes or no findings as the source states them, for the method shown. Binding seen in cells or lysates may run through a third protein.

The experiment deals with T1, YEATS2 in HEK293T cells (human) (UniProt Q9ULM3).
T1 sequence: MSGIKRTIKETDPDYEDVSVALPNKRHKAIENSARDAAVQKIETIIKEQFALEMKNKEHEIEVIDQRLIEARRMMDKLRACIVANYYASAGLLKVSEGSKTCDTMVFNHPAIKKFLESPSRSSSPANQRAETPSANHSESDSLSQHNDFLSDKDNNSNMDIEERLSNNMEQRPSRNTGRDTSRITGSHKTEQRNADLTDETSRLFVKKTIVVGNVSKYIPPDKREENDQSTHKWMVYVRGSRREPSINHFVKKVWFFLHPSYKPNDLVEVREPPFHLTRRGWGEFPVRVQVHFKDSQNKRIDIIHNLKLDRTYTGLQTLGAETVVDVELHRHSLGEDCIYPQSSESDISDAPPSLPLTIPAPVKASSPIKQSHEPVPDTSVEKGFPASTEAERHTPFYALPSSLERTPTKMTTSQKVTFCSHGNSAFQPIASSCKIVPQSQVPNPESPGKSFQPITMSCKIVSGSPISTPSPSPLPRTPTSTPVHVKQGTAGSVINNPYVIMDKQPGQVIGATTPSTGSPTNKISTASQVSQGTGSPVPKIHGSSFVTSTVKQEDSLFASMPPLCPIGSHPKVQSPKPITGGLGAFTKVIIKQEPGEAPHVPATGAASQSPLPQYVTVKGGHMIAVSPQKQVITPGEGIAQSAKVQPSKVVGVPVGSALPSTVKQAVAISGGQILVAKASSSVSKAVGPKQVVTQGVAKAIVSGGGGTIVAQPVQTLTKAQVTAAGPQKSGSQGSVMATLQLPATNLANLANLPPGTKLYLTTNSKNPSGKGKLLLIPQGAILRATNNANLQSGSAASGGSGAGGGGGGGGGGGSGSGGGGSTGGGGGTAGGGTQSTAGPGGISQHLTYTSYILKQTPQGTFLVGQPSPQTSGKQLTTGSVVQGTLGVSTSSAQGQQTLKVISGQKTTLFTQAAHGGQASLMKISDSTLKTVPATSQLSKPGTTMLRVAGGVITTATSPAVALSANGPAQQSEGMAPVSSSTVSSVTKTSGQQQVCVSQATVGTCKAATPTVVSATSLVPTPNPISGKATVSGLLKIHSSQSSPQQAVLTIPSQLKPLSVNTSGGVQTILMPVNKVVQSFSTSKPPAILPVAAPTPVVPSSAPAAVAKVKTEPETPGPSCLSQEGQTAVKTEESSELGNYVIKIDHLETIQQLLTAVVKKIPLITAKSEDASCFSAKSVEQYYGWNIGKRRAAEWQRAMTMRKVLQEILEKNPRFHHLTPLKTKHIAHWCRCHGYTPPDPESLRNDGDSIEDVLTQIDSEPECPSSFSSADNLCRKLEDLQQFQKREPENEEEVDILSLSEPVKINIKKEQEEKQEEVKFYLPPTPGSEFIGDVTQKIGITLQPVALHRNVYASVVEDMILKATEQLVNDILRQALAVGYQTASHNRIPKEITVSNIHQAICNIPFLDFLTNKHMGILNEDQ
The experiment is described as follows: co-IP; co-immunoprecipitation and immunoblot in HEK293T cells; bait and antibodies not stated for this experiment. (Immunoblotting shows a protein as a band on a membrane.)

B1: glutaryl-CoA dehydrogenase (GCDH) in HEK293T cells (enzyme, UniProt Q92947 45-438)
chain: RPEFDWQDPLVLEEQLTTDEILIRDTFRTYCQERLMPRILLANRNEVFHREIISEMGELGVLGPTIKGYGCAGVSSVAYGLLARELERVDSGYRSAMSVQSSLVMHPIYAYGSEEQRQKYLPQLAKGELLGCFGLTEPNSGSDPSSMETRAHYNSSNKSYTLNGTKTWITNSPMADLFVVWARCEDGCIRGFLLEKGMRGLSAPRIQGKFSLRASATGMIIMDGVEVPEENVLPGASSLGGPFGCLNNARYGIAWGVLGASEFCLHTARQYALDRMQFGVPLARNQLIQKKLADMLTEITLGLHACLQLGRLKDQDKAAPEMVSLLKRNNCGKALDIARQARDMLGGNGISDEYHVIRHAMNLEAVNTYEGTHDIHALILGRAITGIQAFTASK
As for B1, the binding entry is “no binding”.
